# Reference: US20020193588A1, “Crystals of penicillin and process for the production thereof” (priority 2000, published 2002)
# For at least one compound, name, drawing or mass did not settle the structure.
# Assay: Storage stability: sealed test tubes stored at room temperature for 1 year, purity determined by HPLC
# Assay type: physicochemical
# Settings: 10 g in sealed test tube, stored at room temperature (5 to 35° C.) for 1 year
row,Structure (SMILES),purity after storage (HPLC) [%]
1,"C[C@@]1(Cn2ccnn2)SC2CC(=O)N2[C@H]1C(=O)OC(c1ccccc1)c1ccccc1 (stereo partly shown) [Comparative Example 1, diphenylmethyl 2-methyl-2-triazolylmethylpenam-3-carboxylate]",76
2,"C[C@@]1(Cn2ccnn2)SC2CC(=O)N2[C@H]1C(=O)OC(c1ccccc1)c1ccccc1 (stereo partly shown) [Comparative Example 2, diphenylmethyl 2-methyl-2-triazolylmethylpenam-3-carboxylate]",48
3,"C[C@@]1(Cn2ccnn2)SC2CC(=O)N2[C@H]1C(=O)OC(c1ccccc1)c1ccccc1 (stereo partly shown) [Example 1, diphenylmethyl 2-methyl-2-triazolylmethylpenam-3-carboxylate]",96
4,"C[C@@]1(Cn2ccnn2)SC2CC(=O)N2[C@H]1C(=O)OC(c1ccccc1)c1ccccc1 (stereo partly shown) [Example 2, diphenylmethyl 2-methyl-2-triazolylmethylpenam-3-carboxylate]",96
